Laboratory results taken from publication doi:10.1101/2025.04.12.648529.
Results are given in words; binding and its absence hold for the method and conditions named. Binding seen in cells or lysates may run through a third protein. A yes stands for co-enrichment or nearness to the bait. Other partners may have been found.

Amino acid sequences for entries named in this document (tags omitted).
UniProt Q1XH10, whole entry: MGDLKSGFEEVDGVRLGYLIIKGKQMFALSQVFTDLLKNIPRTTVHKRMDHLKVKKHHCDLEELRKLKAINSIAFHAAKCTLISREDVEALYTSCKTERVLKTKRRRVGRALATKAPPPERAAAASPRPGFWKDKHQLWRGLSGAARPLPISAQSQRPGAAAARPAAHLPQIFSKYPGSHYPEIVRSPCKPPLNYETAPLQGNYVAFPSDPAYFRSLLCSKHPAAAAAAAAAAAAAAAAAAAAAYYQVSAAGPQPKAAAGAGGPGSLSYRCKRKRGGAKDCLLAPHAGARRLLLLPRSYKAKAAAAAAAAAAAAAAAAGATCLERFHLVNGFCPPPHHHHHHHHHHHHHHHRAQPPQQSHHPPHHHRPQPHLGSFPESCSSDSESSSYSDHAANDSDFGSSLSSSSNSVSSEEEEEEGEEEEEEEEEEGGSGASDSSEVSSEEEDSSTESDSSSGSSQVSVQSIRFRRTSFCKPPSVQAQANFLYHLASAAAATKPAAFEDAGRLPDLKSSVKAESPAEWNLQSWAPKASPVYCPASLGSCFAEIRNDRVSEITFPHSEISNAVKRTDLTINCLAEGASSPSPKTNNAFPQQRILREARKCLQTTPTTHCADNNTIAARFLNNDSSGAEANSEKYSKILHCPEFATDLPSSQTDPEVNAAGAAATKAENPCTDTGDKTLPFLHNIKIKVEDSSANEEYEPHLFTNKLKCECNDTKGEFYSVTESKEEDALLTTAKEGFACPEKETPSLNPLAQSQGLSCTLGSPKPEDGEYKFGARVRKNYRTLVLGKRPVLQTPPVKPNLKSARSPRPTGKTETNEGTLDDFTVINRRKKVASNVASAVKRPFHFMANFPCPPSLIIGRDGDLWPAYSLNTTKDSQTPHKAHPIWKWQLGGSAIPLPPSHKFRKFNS

Target: SKIDA1-3xFLAG (UniProt Q1XH10)
Experiment: affinity purification with mass spectrometry

| Substance | binding |
| --- | --- |
| EED (from UniProt O75530 1-441) | binds |
| MTF2 (from UniProt Q9Y483 1-593) | binds |
